In patent US20030170239A1, “Immunotherapeutic method to prevent islet cell rejection” (priority 2000, published 2003):
At least one structure is not confirmed: it was looked up by name or label, or the drawing left a doubt.

System: pig islet xenograft in Lewis rats
Assay: Immunohistochemical analysis of pig islet xenograft, non-diabetic recipients (Example 1)
Assay type: in vivo
Details: day +12 post transplant
From the text: Pancreata were removed from donor outbred female pigs, >2 years old, by standard surgical technique. Following removal, pancreata were perfused with Liberase HI (Roche Diagnostics Corp., Indianapolis, Ind., U.S.A., Cat. No. 1666720) for intraductal distension. Islet cells were dissociated from the perfused pancreata by the automated method. Cleaved islets were separated from non-islet tissue by continuous OptiPrep gradients (Accurate Chemical and Scientific Corp., Westbury, N.Y., U.S.A., Cat. No. AN-1030061) on a COBE 2991 cell separator (Gambro BCT International, Lakewood, Colo., U.S.A.). The resulting free floating, purified islet cells were cultured in M199 medium supplemented with 20% donor pig serum for 48 hours at 37° C.
Transplantation was conducted by standard surgical technique. Briefly, the recipient animals, non-diabetic inbred male Lewis rats weighing 250-270 grams, were anesthetized with Telazol 0.20 mg/kg BW, administered i.m. In addition, the analgesic buprinorphine was administered s.c. to the recipient animals. Transplantation was conducted by making a left flank incision on the recipient, into which 2,000 donor islet equivalents (IE) were injected under the left kidney capsule via PE-50 tubing according to standard procedure. […]

With `C=CC[C@@H]1/C=C(\C)C[C@H](C)C[C@H](OC)[C@H]2O[C@@](O)(C(=O)C(=O)N3CCCC[C@H]3C(=O)O[C@H](/C(C)=C/[C@@H]3CC[C@@H](O)[C@H](OC)C3)[C@H](C)[C@@H](O)CC1=O)[C@H](C)C[C@@H]2OC` [FK, FK-506] the “infiltration of mononuclear cells in graft” value was “fewer number of macrophages, CD3, CD4, CD8, B cells and NK cells than in the untreated controls”.
